# Results as given in the supplement of paper PMC8728848.
# This is one part of the list.
# Assays:
# Assay in all cases: glycan array binding signal (z-score within array); higher = stronger binding
# Conditions in all cases: glycan notation: IUPAC condensed, linker removed
# [1] = target: Gal(b1-3)GlcNAc(b1-2)Man(a1-3)[GlcNAc(b1-4)][Gal(b1-3)GlcNAc(b1-2)Man(a1-6)]Man(b1-4)GlcNAc(b1-4)GlcNAc
# How it was run: (§1)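 Arrays were curated from the Consortium for Functional Glycomics database, 3228 in total, and kept only where the protein sequence was available. Binding is expressed as a within-array Z-score. This score was averaged across arrays of the same protein sequence at different concentrations or buffers and across linkers, and negative values can be read as non-binding.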
# [2] = target: Gal(b1-3)GlcNAc(b1-2)[Gal(b1-3)GlcNAc(b1-6)]Man(a1-6)[Gal(b1-3)GlcNAc(b1-2)Man(a1-3)]Man(b1-4)GlcNAc(b1-4)GlcNAc
# How it was run: as §1
# [3] = target: Gal(b1-3)GlcNAc(b1-3)Gal(b1-3)GlcNAc
# How it was run: as §1
# [4] = target: Gal(b1-3)GlcNAc(b1-3)Gal(b1-4)Glc
# How it was run: as §1
# [5] = target: Gal(b1-3)GlcNAc(b1-3)Gal(b1-4)GlcNAc
# How it was run: as §1
# [6] = target: Gal(b1-3)GlcNAc(b1-3)Gal(b1-4)GlcNAc(b1-2)Man(a1-3)[Gal(b1-3)GlcNAc(b1-3)Gal(b1-4)GlcNAc(b1-2)Man(a1-6)]Man(b1-4)GlcNAc(b1-4)GlcNAc
# How it was run: as §1
# [7] = target: Gal(b1-3)GlcNAc(b1-3)Gal(b1-4)GlcNAc(b1-2)[Gal(b1-3)GlcNAc(b1-3)Gal(b1-4)GlcNAc(b1-6)]Man(a1-6)[Gal(b1-3)GlcNAc(b1-3)Gal(b1-4)GlcNAc(b1-2)Man(a1-3)]Man(b1-4)GlcNAc(b1-4)[Fuc(a1-6)]GlcNAc
# How it was run: as §1
# [8] = target: Gal(b1-3)GlcNAc(b1-3)Gal(b1-4)GlcNAc(b1-3)Gal(b1-4)GlcNAc(b1-2)[Gal(b1-3)GlcNAc(b1-3)Gal(b1-4)GlcNAc(b1-3)Gal(b1-4)GlcNAc(b1-6)]Man(a1-6)[Gal(b1-3)GlcNAc(b1-3)Gal(b1-4)GlcNAc(b1-3)Gal(b1-4)GlcNAc(b1-2)Man(a1-3)]Man(b1-4)GlcNAc(b1-4)[Fuc(a1-6)]GlcNAc
# How it was run: as §1
# [9] = target: Gal(b1-3)GlcNAc(b1-3)Gal(b1-4)GlcNAc(b1-6)[Gal(b1-3)GlcNAc(b1-3)]Gal(b1-4)Glc
# How it was run: as §1
# [10] = target: Gal(b1-3)GlcNAc(b1-3)Gal(b1-4)[Fuc(a1-3)]GlcNAc
# How it was run: as §1
# [11] = target: Gal(b1-3)GlcNAc(b1-3)Gal(b1-4)[Fuc(a1-3)]GlcNAc(b1-6)[Gal(b1-3)GlcNAc(b1-3)]Gal(b1-4)Glc
# How it was run: as §1
# [12] = target: Gal(b1-3)GlcNAc(b1-3)GalNAc
# How it was run: as §1
# [13] = target: Gal(b1-3)GlcNAc(b1-6)Gal(b1-4)GlcNAc
# How it was run: as §1
# [14] = target: Gal(b1-3)GlcNAc(b1-6)GalNAc
# How it was run: as §1
# [15] = target: Gal(b1-3)GlcNAc(b1-6)[Gal(b1-3)]GalNAc
# How it was run: as §1
# [16] = target: Gal(b1-3)GlcNAc6S
# How it was run: as §1
# [17] = target: Gal(b1-3)[Fuc(a1-4)]GlcNAc
# How it was run: as §1
# [18] = target: Gal(b1-3)[Fuc(a1-4)]GlcNAc(b1-2)Man
# How it was run: as §1
# [19] = target: Gal(b1-3)[Fuc(a1-4)]GlcNAc(b1-2)Man(a1-3)[Gal(b1-3)[Fuc(a1-4)]GlcNAc(b1-2)Man(a1-6)]Man(b1-4)GlcNAc(b1-4)[Fuc(a1-6)]GlcNAc
# How it was run: as §1
# [20] = target: Gal(b1-3)[Fuc(a1-4)]GlcNAc(b1-3)Gal(b1-3)[Fuc(a1-4)]GlcNAc
# How it was run: as §1
# [21] = target: Gal(b1-3)[Fuc(a1-4)]GlcNAc(b1-3)Gal(b1-4)[Fuc(a1-3)]GlcNAc
# How it was run: as §1
# [22] = target: Gal(b1-3)[Fuc(a1-4)]GlcNAc(b1-6)GalNAc
# How it was run: as §1
# [23] = target: Gal(b1-3)[GlcNAc(b1-6)]GalNAc
# How it was run: as §1
# [24] = target: Gal(b1-3)[Neu5Ac(a2-6)]GalNAc
# How it was run: as §1
# [25] = target: Gal(b1-3)[Neu5Ac(a2-6)]GlcNAc(b1-4)Gal(b1-4)Glc
# How it was run: as §1
# [26] = target: Gal(b1-3)[Neu5Ac(b2-6)]GalNAc
# How it was run: as §1
# [27] = target: Gal(b1-4)Gal
# How it was run: as §1
# [28] = target: Gal(b1-4)GalNAc(a1-3)[Fuc(a1-2)]Gal(b1-4)GlcNAc
# How it was run: as §1
# [29] = target: Gal(b1-4)GalNAc(b1-3)[Fuc(a1-2)]Gal(b1-4)GlcNAc
# How it was run: as §1
# [30] = target: Gal(b1-4)Glc
# How it was run: as §1
# [31] = target: Gal(b1-4)Glc6S
# How it was run: as §1
# [32] = target: Gal(b1-4)GlcNAc
# How it was run: as §1
# [33] = target: Gal(b1-4)GlcNAc(a1-6)Gal(b1-4)GlcNAc
# How it was run: as §1
# [34] = target: Gal(b1-4)GlcNAc(b1-2)Man
# How it was run: as §1
# [35] = target: Gal(b1-4)GlcNAc(b1-2)Man(a1-3)Man(b1-4)GlcNAc(b1-4)GlcNAc
# How it was run: as §1
# [36] = target: Gal(b1-4)GlcNAc(b1-2)Man(a1-3)[Gal(b1-4)GlcNAc(b1-2)Man(a1-6)]Man(b1-4)GlcNAc(b1-4)GlcNAc
# How it was run: as §1
# [37] = target: Gal(b1-4)GlcNAc(b1-2)Man(a1-3)[Gal(b1-4)GlcNAc(b1-2)Man(a1-6)]Man(b1-4)GlcNAc(b1-4)[Fuc(a1-6)]GlcNAc
# How it was run: as §1
# [38] = target: Gal(b1-4)GlcNAc(b1-2)Man(a1-3)[Gal(b1-4)GlcNAc(b1-2)Man(a1-6)][Gal(b1-4)GlcNAc(b1-4)]Man(b1-4)GlcNAc(b1-4)[Fuc(a1-6)]GlcNAc
# How it was run: as §1
# [39] = target: Gal(b1-4)GlcNAc(b1-2)Man(a1-3)[Gal(b1-4)GlcNAc(b1-2)Man(a1-6)][GlcNAc(b1-4)]Man(b1-4)GlcNAc(b1-4)[Fuc(a1-6)]GlcNAc
# How it was run: as §1
# [40] = target: Gal(b1-4)GlcNAc(b1-2)Man(a1-3)[GlcNAc(b1-2)Man(a1-6)]Man(b1-4)GlcNAc(b1-4)GlcNAc
# How it was run: as §1
# [41] = target: Gal(b1-4)GlcNAc(b1-2)Man(a1-3)[GlcNAc(b1-4)][Gal(b1-4)GlcNAc(b1-2)Man(a1-6)]Man(b1-4)GlcNAc(b1-4)GlcNAc
# How it was run: as §1
# [42] = target: Gal(b1-4)GlcNAc(b1-2)Man(a1-3)[Man(a1-6)]Man(b1-4)GlcNAc(b1-4)GlcNAc
# How it was run: as §1
# [43] = target: Gal(b1-4)GlcNAc(b1-2)Man(a1-6)Man(b1-4)GlcNAc(b1-4)GlcNAc
# How it was run: as §1
# [44] = target: Gal(b1-4)GlcNAc(b1-2)Man(a1-6)[GlcNAc(b1-2)Man(a1-3)]Man(b1-4)GlcNAc(b1-4)GlcNAc
# How it was run: as §1
# [45] = target: Gal(b1-4)GlcNAc(b1-2)Man(a1-6)[Man(a1-3)]Man(b1-4)GlcNAc(b1-4)GlcNAc
# How it was run: as §1
binder,measurement,setting,value
HFR-3 (Triticum aestivum) (protein) MKGLLLCALALAFAAVTTHAQLQSCPTRCGKQADGMECPNNLCCSKDGYCGLGVDYCSAGAGCQSGACYDNKICGAQANGTLCRNNHCCSSGGRCGYGREYCSNGCQGGPCWADLKCGHLDNGKLCPNNLCCSQYGYCGLGPEFCGTGCQNGACSTDKPCGNKANGAPCTNNYCCSQYGSCGLGKDYCGTGCQNGACN,glycan array binding signal (z-score),[1],-0.132
same,glycan array binding signal (z-score),[2],-1
same,glycan array binding signal (z-score),[3],1.06
same,glycan array binding signal (z-score),[4],-0.246
same,glycan array binding signal (z-score),[5],-0.413
same,glycan array binding signal (z-score),[6],0.56
same,glycan array binding signal (z-score),[7],0.301
same,glycan array binding signal (z-score),[8],1.11
same,glycan array binding signal (z-score),[9],-0.123
same,glycan array binding signal (z-score),[10],0.11
same,glycan array binding signal (z-score),[11],-1.33
same,glycan array binding signal (z-score),[12],-0.437
same,glycan array binding signal (z-score),[13],-0.527
same,glycan array binding signal (z-score),[14],0.035
same,glycan array binding signal (z-score),[15],0.481
same,glycan array binding signal (z-score),[16],-1.02
same,glycan array binding signal (z-score),[17],0.081
same,glycan array binding signal (z-score),[18],-0.057
same,glycan array binding signal (z-score),[19],-0.352
same,glycan array binding signal (z-score),[20],-0.365
same,glycan array binding signal (z-score),[21],-0.799
same,glycan array binding signal (z-score),[22],0.535
same,glycan array binding signal (z-score),[23],-0.111
same,glycan array binding signal (z-score),[24],0.174
same,glycan array binding signal (z-score),[25],-0.176
same,glycan array binding signal (z-score),[26],-1.48
same,glycan array binding signal (z-score),[27],-0.413
same,glycan array binding signal (z-score),[28],-0.5
same,glycan array binding signal (z-score),[29],-0.73
same,glycan array binding signal (z-score),[30],0.542
same,glycan array binding signal (z-score),[31],-0.282
same,glycan array binding signal (z-score),[32],-0.853
same,glycan array binding signal (z-score),[33],-0.215
same,glycan array binding signal (z-score),[34],-0.716
same,glycan array binding signal (z-score),[35],-0.057
same,glycan array binding signal (z-score),[36],-0.641
same,glycan array binding signal (z-score),[37],-0.352
same,glycan array binding signal (z-score),[38],-0.212
same,glycan array binding signal (z-score),[39],-0.204
same,glycan array binding signal (z-score),[40],-0.437
same,glycan array binding signal (z-score),[41],-1.47
same,glycan array binding signal (z-score),[42],-0.491
same,glycan array binding signal (z-score),[43],-0.488
same,glycan array binding signal (z-score),[44],-0.741
same,glycan array binding signal (z-score),[45],-0.608

# Quoted at random: three records from the list
binder,measurement,setting,value
HFR-3 (Triticum aestivum) (protein) MKGLLLCALALAFAAVTTHAQLQSCPTRCGKQADGMECPNNLCCSKDGYCGLGVDYCSAGAGCQSGACYDNKICGAQANGTLCRNNHCCSSGGRCGYGREYCSNGCQGGPCWADLKCGHLDNGKLCPNNLCCSQYGYCGLGPEFCGTGCQNGACSTDKPCGNKANGAPCTNNYCCSQYGSCGLGKDYCGTGCQNGACN,glycan array binding signal (z-score),[17],0.081
same,glycan array binding signal (z-score),[14],0.035
same,glycan array binding signal (z-score),[34],-0.716
